PubChem BioAssay AID1487 (National Center for Advancing Translational Sciences (NCATS), 2009)
The other results are listed elsewhere or left out. Further columns of the screen follow, without active or inactive calls. The list favours compounds with an active or inconclusive main result. Words in brackets tell the shape of the fitted curve; partial curves, single points and poor fits give uncertain potencies.

Experiment: qHTS Assay for Modulators of Lamin A Splicing
Settings: HeLa LMNA splicing GFP/RFP minigene ratio, 48 h
Summary of the method: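 S3 HeLa cells stably expressing lamin A-EGFP splicing minigene plus DsRed2, 600 cells/well, 48 h compound exposure at 37C. Laser-scanning cytometry; analysed as GFP (500-530 nm)/RFP (575-640 nm) total intensity ratio; 0.5% DMSO vehicle.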

[1] = measured here: RFP viability control channel
[2] = measured here: GFP splicing reporter channel

Row | SMILES | AC50 [1] | AC50 [2]
1 | Cc1ccc(S(=O)(=O)N[C@H](C(=O)OCn2nnc3ccccc3c2=O)C(C)C)cc1 | 17.8 µM [rising, single point] | –
2 | COc1ccc(C(NC(=O)C2CCCCC2)c2c(O)ccc3ccccc23)cc1 (stereo not drawn) | 12.6 µM [rising, partial curve] | –
3 | c1ccc2c(c1)CC1(CCCCC1)n1nnnc1-2 | 6.31 µM [rising, partial curve, poor fit] | –
4 | CCn1nc(NC(=O)c2cccs2)c2cc3ccccc3nc21 | – | 35.5 µM [falling, single point]
5 | CCOC(=O)c1cnc(-n2nc(C)cc2C)nc1NCCc1ccccc1 | 3.55 µM [rising, full curve] | 6.31 µM [rising, full curve]
6 | CC1CCN(C(=O)COc2cccc3c2CCN(C)C3=O)CC1 | 35.5 µM [falling, partial curve, poor fit] | –
7 | Cc1ccc(C)c(N2CCN(CCCNC(=O)Cn3c(-c4cccs4)cc4ccccc43)CC2)c1 | 35.5 µM [falling, partial curve] | 25.1 µM [falling, single point]
8 | O=C(CCC1CC(=O)Nc2ccccc21)NCc1ccc(F)cc1 (stereo not drawn) | 39.8 µM [falling, partial curve, poor fit] | –
9 | COc1ccc2c(c1)c(C(=O)CN1CCN(C(=O)c3ccco3)CC1)c(C)n2C | 10 µM [rising, partial curve, poor fit] | –
10 | S=C(NCCC(c1ccccc1)c1ccccc1)Nc1ccc(Cl)cc1 | 35.5 µM [falling, single point] | 35.5 µM [falling, single point]
11 | O=C(NCc1ccco1)c1ccc(Cl)c(S(=O)(=O)N2CCc3ccccc32)c1 | 22.4 µM [rising, partial curve] | 20 µM [rising, single point]
12 | Cc1cc2n(n1)SC(Nc1ccc(F)c(Cl)c1)N2 (stereo not drawn) | 31.6 µM [rising, single point] | –
13 | Cc1nn(-c2nc3ccccc3[nH]2)c(N)c1-c1ccccc1 | 17.8 µM [rising, single point] | –
14 | CCCNC(=S)N1CCC(NC(=O)C23CC4CC(CC(C4)C2)C3)CC1 | 17.8 µM [rising, partial curve, poor fit] | –
15 | CC1Cc2ccccc2N1S(=O)(=O)c1cccc(C(=O)NC2CC2)c1 (stereo not drawn) | 17.8 µM [rising, single point] | –
16 | O=C(CSc1nc2nc(-c3cccs3)cc(C(F)(F)F)c2c(=O)[nH]1)Nc1c(F)c(F)c(F)c(F)c1F | – | 2.82 µM [falling, single point]
17 | CN(C)c1ccc(NC(=O)Cn2ncn3c(cc4ccccc43)c2=O)cc1 | 10 µM [rising, partial curve, poor fit] | –
18 | O=C(CO/N=C/c1ccc(OC(F)F)cc1)NCc1ccc(F)cc1 | 12.6 µM [rising, partial curve, poor fit] | –

Row | SMILES | AC50 [1] | AC50 [2]
19 | Cc1[nH]c2ccccc2c1C(=O)CSc1nc2cc(S(=O)(=O)N3CCCCC3)ccc2o1 | 5.01 µM [rising, full curve] | 2.51 µM [rising, full curve]
20 | Cc1ccc(N(CC2=NCCN2)c2cccc(O)c2)cc1 | 5.01 µM [rising, partial curve, poor fit] | 6.31 µM [falling, partial curve, poor fit]
21 | O=C(N/C(=C\c1ccc(Cl)cc1)C(=O)N1CCOCC1)c1ccc([N+](=O)[O-])cc1 | 4.47e-05 µM [rising, full curve] | –
22 | CC(=O)NC(NC(=S)Nc1ccc(N=Nc2ccccc2C)cc1C)C(Cl)(Cl)Cl (stereo not drawn) | 14.1 µM [falling, partial curve] | 14.1 µM [falling, single point]
23 | O=C(NCCCN1CCOCC1)c1ccc(CNS(=O)(=O)c2ccc(F)cc2)cc1 | 14.1 µM [rising, single point] | –
24 | Cc1ccccc1Cn1nnc(C(=O)Nc2cccc(C)c2C)c1N | – | 15.8 µM [falling, single point]
25 | Cc1ccc(OCc2nnc(SCC(=O)Nc3cccc4ccccc34)n2-c2ccccc2)cc1 | 25.1 µM [rising, single point] | 15.8 µM [rising, single point]
26 | Cc1ccc(S(=O)(=O)NCCC(=O)Nc2ccc(Cl)c(Cl)c2)cc1 | 14.1 µM [rising, partial curve] | 11.2 µM [rising, single point]
27 | CCN(CC)c1ccc2c(c1)CCCN2 | 22.4 µM [rising, single point] | 22.4 µM [rising, single point]
28 | CCOc1ccc(/C=C/C(=O)Nc2ccc(N3CCOCC3)cc2)cc1 | 35.5 µM [falling, single point] | 25.1 µM [falling, single point]
29 | CC(C)CSc1n[nH]c(N)n1 | – | 0.447 µM [rising, partial curve, poor fit]
30 | O=C(c1noc2c1CCc1ccccc1-2)N1CCCc2ccccc21 | 35.5 µM [rising, single point] | 11.2 µM [rising, single point]
31 | CC1CCCC(C)N1NC(=O)c1cccc(S(=O)(=O)N2CCc3ccccc32)c1 (stereo not drawn) | 14.1 µM [rising, single point] | –
32 | Cc1ccc(NC(=O)OCC(F)(F)C(F)F)cc1NC(=O)OCC(F)(F)C(F)F | 3.16 µM [rising, full curve, poor fit] | –
33 | COc1ccc(-c2csc(/C(C#N)=C\c3ccc(OC)c([N+](=O)[O-])c3)n2)cc1 | 0.141 µM [rising, full curve, poor fit] | 0.251 µM [rising, full curve, poor fit]
34 | Cc1ccc(C)c(NS(=O)(=O)c2cc(C(=O)Nc3cccc(N(C)S(C)(=O)=O)c3)ccc2C)c1 | 15.8 µM [rising, partial curve] | –
35 | COc1ccc(/C=C/C(=O)C2CC2)cc1Cn1nc(C)c([N+](=O)[O-])c1C | – | 12.6 µM [falling, partial curve, poor fit]

3 entries out of the list, arranged by length of the SMILES, high to low.
Row | SMILES | AC50 [1] | AC50 [2]
9 | COc1ccc2c(c1)c(C(=O)CN1CCN(C(=O)c3ccco3)CC1)c(C)n2C | 10 µM [rising, partial curve, poor fit] | –
23 | O=C(NCCCN1CCOCC1)c1ccc(CNS(=O)(=O)c2ccc(F)cc2)cc1 | 14.1 µM [rising, single point] | –
28 | CCOc1ccc(/C=C/C(=O)Nc2ccc(N3CCOCC3)cc2)cc1 | 35.5 µM [falling, single point] | 25.1 µM [falling, single point]
